In doi:10.1101/2021.12.21.473728:
No constants are given. Whether binding was seen depends on the method and setting. In cells and extracts the contact can be indirect. Some binding calls cover weakened binding; strength is not graded here.

Protein sequences, listed by entry. Tags and fused reporters are not part of them.
UniProt P40356: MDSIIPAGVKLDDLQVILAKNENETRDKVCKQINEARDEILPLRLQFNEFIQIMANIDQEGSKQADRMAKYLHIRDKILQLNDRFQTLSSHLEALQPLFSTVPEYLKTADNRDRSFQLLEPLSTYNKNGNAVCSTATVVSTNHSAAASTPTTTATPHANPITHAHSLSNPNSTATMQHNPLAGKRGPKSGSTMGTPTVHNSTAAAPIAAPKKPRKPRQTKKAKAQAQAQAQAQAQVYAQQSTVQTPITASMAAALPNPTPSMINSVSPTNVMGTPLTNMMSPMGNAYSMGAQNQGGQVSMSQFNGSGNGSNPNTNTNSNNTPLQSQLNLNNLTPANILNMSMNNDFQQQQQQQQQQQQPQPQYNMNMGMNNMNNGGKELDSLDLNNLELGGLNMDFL
UniProt Q12124: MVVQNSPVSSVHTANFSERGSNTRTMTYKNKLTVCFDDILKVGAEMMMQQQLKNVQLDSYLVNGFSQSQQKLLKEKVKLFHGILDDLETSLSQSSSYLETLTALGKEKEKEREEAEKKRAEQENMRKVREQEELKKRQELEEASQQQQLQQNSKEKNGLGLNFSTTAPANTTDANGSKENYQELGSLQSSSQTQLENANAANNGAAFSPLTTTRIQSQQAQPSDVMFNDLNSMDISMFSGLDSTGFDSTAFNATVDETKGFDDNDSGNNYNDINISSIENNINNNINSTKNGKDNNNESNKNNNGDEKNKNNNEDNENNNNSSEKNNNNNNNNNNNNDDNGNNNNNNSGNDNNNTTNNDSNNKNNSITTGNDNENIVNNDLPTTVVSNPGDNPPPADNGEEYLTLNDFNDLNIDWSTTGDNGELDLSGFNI
UniProt P19659: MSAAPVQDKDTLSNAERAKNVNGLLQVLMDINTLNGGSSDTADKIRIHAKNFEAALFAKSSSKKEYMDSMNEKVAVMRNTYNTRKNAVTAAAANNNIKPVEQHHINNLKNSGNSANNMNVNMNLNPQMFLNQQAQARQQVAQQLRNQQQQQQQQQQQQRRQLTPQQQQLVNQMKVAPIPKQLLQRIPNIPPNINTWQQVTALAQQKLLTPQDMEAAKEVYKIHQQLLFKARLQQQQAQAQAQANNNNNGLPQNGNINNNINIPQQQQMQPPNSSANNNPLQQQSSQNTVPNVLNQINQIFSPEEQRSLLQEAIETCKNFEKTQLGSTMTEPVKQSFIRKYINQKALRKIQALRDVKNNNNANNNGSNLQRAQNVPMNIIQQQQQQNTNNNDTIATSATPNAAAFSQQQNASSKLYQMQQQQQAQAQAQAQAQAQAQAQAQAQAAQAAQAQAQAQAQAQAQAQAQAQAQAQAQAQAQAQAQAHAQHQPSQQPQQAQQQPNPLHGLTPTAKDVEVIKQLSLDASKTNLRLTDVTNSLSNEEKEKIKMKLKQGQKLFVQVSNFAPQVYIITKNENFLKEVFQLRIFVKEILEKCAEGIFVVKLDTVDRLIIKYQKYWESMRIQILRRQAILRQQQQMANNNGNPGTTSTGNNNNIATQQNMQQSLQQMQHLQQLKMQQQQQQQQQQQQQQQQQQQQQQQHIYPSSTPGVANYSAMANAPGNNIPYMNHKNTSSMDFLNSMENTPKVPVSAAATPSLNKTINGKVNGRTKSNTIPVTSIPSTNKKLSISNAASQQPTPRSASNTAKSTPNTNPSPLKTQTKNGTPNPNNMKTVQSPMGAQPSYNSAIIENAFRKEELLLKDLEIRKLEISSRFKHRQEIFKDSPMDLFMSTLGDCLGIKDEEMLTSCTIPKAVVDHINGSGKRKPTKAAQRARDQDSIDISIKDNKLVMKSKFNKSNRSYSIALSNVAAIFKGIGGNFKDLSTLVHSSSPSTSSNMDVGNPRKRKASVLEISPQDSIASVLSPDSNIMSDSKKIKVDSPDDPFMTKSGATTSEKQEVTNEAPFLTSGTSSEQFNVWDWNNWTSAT
UniProt P32585: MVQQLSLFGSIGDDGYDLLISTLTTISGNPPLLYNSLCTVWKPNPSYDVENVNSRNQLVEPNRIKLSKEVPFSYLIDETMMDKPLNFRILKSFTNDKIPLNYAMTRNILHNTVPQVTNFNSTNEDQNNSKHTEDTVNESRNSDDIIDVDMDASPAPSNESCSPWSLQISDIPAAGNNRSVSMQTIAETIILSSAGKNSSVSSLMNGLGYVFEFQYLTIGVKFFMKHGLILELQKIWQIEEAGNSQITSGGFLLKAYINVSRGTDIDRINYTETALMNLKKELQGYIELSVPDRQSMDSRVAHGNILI

T1: Med17 (S. cerevisiae (endogenous in BY4705 derivatives)), P32569
T1 chain: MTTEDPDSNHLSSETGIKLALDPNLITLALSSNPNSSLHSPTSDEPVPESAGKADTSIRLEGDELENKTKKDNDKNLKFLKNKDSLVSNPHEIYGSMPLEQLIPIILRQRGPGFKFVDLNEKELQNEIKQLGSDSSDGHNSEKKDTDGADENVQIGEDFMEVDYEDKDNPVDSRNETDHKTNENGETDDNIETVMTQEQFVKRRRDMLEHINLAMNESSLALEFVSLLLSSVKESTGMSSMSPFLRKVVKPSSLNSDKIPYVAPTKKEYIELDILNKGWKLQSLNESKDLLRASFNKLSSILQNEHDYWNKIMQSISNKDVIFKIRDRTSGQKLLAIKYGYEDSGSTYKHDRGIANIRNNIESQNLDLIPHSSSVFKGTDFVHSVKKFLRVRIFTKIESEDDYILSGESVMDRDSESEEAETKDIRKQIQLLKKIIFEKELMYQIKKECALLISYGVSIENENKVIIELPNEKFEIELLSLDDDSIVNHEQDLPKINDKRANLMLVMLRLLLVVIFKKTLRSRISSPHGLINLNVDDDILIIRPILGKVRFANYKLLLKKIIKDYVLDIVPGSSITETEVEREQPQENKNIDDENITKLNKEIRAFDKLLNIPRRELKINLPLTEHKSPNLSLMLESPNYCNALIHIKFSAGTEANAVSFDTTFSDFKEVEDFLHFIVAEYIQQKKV


Columns and labels:
Assay in all cases: co-IP
[1] = biological target: Med3 (S. cerevisiae (endogenous in BY4705 derivatives)) (UniProt P40356)
[2] = biological target: Med17 (S. cerevisiae (endogenous in BY4705 derivatives)) (UniProt P32569)
[3] = biological target: T1, Med17 (S. cerevisiae (endogenous in …)); settings: remark: other sources report otherwise

binding [1]	Molecule	further results
binds	Med2 (from UniProt Q12124 1-431)	
binds	Med15 (from UniProt P19659 1-1081)	
	Med18 (from UniProt P32585 1-307)	binding [2]: binds
	Med1, Q12321 1-566 (protein) MVEGDSYVETLDSMIELFKDYKPGSITLENITRLCQTLGLESFTEELSNELSRLSTASKIIVIDVDYNKKQDRIQDVKLVLASNFDNFDYFNQRDGEHEKSNILLNSLTKYPDLKAFHNNLKFLYLLDAYSHIESDSTSHNNGSSDKSLDSSNASFNNQGKLDLFKYFTELSHYIRQCFQDNCCDFKVRTNLNDKFGIYILTQGINGKEVPLAKIYLEENKSDSQYRFYEYIYSQETKSWINESAENFSNGISLVMEIVANAKESNYTDLIWFPEDFISPELIIDKVTCSSNSSSSPPIIDLFSNNNYNSRIQLMNDFTTKLINIKKFDISNDNLDLISEILKWVQWSRIVLQNVFKLVSTPSSNSNSSELEPDYQAPFSTSTKDKNSSTSNTEPIPRSNRHGSVVEASRRRRSSTNKSKRPSITEAMMLKEEGLQQFNLHEILSEPAIEEENGDSIKEHSTTMDGANDLGFTASVSNQENAGTDIVMEDHGVLQGTSQNYGTATADDADIEMKDVSSKPSKPESSVLQLIVSEDHIILDTISECNLYDDVKCWSKFIEKFQDIVS	binding [3]: binds
